PubChem BioAssay AID2685 (National Center for Advancing Translational Sciences (NCATS), 2010)
Screen size: about 320,000 compounds; about 2,100 (0.66%) were called active. Inconclusive means that the source gave no clear call. Such entries were picked first, then a sample of the others. Calls come from the whole dose curve; as a rule, active = well fitted inhibition curve with a large enough effect in the signal ratio, with a control signal flat (not every such curve was filed as active); inconclusive = small, poorly fitted or top-dose-only effect, or effect the other way, or a change in a side signal; inactive = flat fitted curve, though single readings scatter; the % refers to the signal ratio. Potencies beside an inconclusive call are fits to weak or partial responses and may not hold up.

test: qHTS Assay for Lipid Storage Modulators in Drosophila S3 Cells; conditions: BODIPY lipid droplet fluorescence, 18-24 h, cells fed with added oleic acid; lipid storage change, negative = inhibition: at 46.1 µM (top of the series) unless noted
In short: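 Drosophila S3 cells loaded with oleic acid (400 uM, as added) and compounds at several concentrations; lipid droplets imaged by 488-nm laser-scanning cytometry, 500–530 nm intensity and object ratio to cell channel. Percent activity normalized to 20 uM Triacsin C.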
% is set by controls: 0 for no effect and ±100 for the full control effect; potency is the fitted concentration of half-maximal effect.

Lipid storage change, negative = inhibition, inconclusive:
CC(O)[C@@]1(O)CC[C@H]2[C@@H]3CC[C@H]4C[C@@H](O)CC[C@]4(C)C3=CC[C@@]21C (some centres undefined) -9.35%, Cc1cc(C)c(NC(=O)C2CCCN2CCOC(=O)c2cccc([N+](=O)[O-])c2)c(C)c1 (centres undefined) 3.92%, Cc1ccc2[nH]cc(S(=O)(=O)c3ccc(C(C)C)cc3)c(=O)c2c1 25.6%, Cc1ccccc1-c1nn(-c2ccc(F)cc2F)cc1CNCCN(C)C -2.27%, C/C(=N\N=C(N)N)c1cccc([N+](=O)[O-])c1 -14.8%, Cc1nc(S(=O)(=O)Nc2ccc3c(c2)OCCO3)cn1C -13.8%, O=C1COc2cc(S(=O)(=O)CCC(=O)N3CCCCC3)c(Cl)cc2N1 32.1%, COC(=O)C1=CN(Cc2ccc(OC)c(OC)c2)C=C(C(=O)OC)C1c1ccccc1F -14.1%, Cc1ccc(NC(=O)CCNC(=O)c2ccccc2Cl)cc1S(=O)(=O)N(C)C 19.3%, CN1CCN(S(=O)(=O)c2cc(C(F)(F)F)ccc2Cl)CC1 -16.4%, COc1ccc(CCNC(=O)CC2Oc3ccc(Cl)cc3NC2=O)cc1OC (centres undefined) 26.4%, COc1ccc(Nc2nc(N3CCN(S(=O)(=O)N(C)C)CC3)nc3ccccc23)cc1 25%, COc1ccc(N2C3=C(CC4=C2CC(C)(C)CC4=O)C(=O)CC(C)(C)C3)cc1 -9.06%, CS(=O)(=O)N1CCc2cc(C(=O)NC3CC3)ccc21 -58.4%, CC(c1ccccc1)N(CCC(c1ccccc1)C1CCOC(C)(C)C1)C(=O)c1ccco1 (centres undefined) -23.3%, COc1cccc(Cn2cccc(NC(=O)Nc3cccc(C#N)c3)c2=O)c1 -21.8%, CSc1cccc(NC(=O)/C=C/c2ccco2)c1 -13.2%, COc1cc(CN2CC(=O)N(c3ccc(C)cc3)C2=S)cc(OC)c1OC 10.4%, Cc1ccc(Nc2nc(-c3ccc(S(=O)(=O)N4CCCC4)cc3)cs2)cc1C -28.7%, CCOC(=O)C#CC(CCc1ccccc1)OS(N)(=O)=O (centres undefined) -62.8%, CCOc1ccccc1CNC(=O)CCNS(=O)(=O)c1ccc2[nH]c(=O)oc2c1 -8.7%, CCN1C(=O)[C@@H]2[C@H](C1=O)[C@@H]1C(=O)Nc3ccccc3C(=O)N1[C@@H]2c1ccccc1 5.04%, Cc1cc(C)n(/N=C/c2ccco2)c(=O)c1C#N -1.02%, Cc1ccc(S(=O)(=O)Nc2cccc(/C=C/C(=O)O)c2)cc1 7.24%, COc1ccc(-n2nc(C(=O)NCC(=O)NCC3COc4ccccc4O3)c3ccccc3c2=O)c(OC)c1 (centres undefined) 59.1%, O=S(=O)(c1cccs1)N1CN(Cc2ccc(Cl)cc2)c2nc3ccccc3nc21 32.6%, O=C(NNc1nc2cc3c(cc2s1)OCO3)c1ccc(F)cc1 32.6%, CC1(C)C(=O)Nc2ccccc2N1C(=O)COC(=O)CSc1ccc(F)cc1 -8.29%, COc1ccc(N(CC(=O)NC2CCCCC2)C(=O)CCC(=O)Nc2nc(C)cs2)cc1 191%, O=C(NC(NNc1ccc([N+](=O)[O-])cc1)(C(F)(F)F)C(F)(F)F)c1ccc(Cl)cc1 -14.3%, CCOc1ccc(NC(=S)N2CCC(NC(=O)c3ccccc3C)CC2)cc1 -11.8%, Cc1cc(C)n(-c2nc(C(F)(F)F)nc3ccccc23)n1 -8.52%, CCCCc1cc(=O)oc2cc(C)cc(OCC(=O)Nc3ccccn3)c12 -120%, Cc1cc(C)c2oc(C(=O)Nc3ccc(S(=O)(=O)Nc4nccs4)cc3)cc(=O)c2c1 32.8%, Cc1nn(-c2ccc(C(=O)N3CCN(S(=O)(=O)c4ccccc4C(F)(F)F)CC3)cc2)c(C)c1Cl 32.2%, COc1cc(/C=C2\SC(=O)N(CCN)C2=O)ccc1OS(=O)(=O)c1cc(C)ccc1C -7.63%, Cc1ccccc1OCCNc1cc(N2CC(C)NC(C)C2)ccc1[N+](=O)[O-] (centres undefined) 15.2%, Cc1cc(C)c(S(C)(=O)=O)c(NN)n1 24%, CCCCn1c(N)c(N(CC)C(=O)c2cc(S(=O)(=O)N3CCCCCC3)ccc2OC)c(=O)[nH]c1=O, O=C(CCCN1C(=O)/C(=C/c2cccs2)SC1=S)Nc1ccc(C(=O)O)cc1 13%, Cc1ccccc1C(=O)NC(NC(=S)Nc1ccc(S(N)(=O)=O)cc1)C(Cl)(Cl)Cl (centres undefined) -32.3%, Cc1ccc(-n2ncc3c2CC(C)(C)CC3NC(=O)c2ccccn2)cc1 (centres undefined) -51.7%, CCCn1c(N)c(C(=O)CSc2nc(C)nc3sc(C)c(C)c23)c(=O)[nH]c1=O 21.8%, CCCCN(C(=O)C1=CC=CN2CCS(=O)(=O)N=C12)c1ccccc1, O=C(COc1ccccc1)NCC(=O)N/N=C/c1cccs1 -3.94%, Cc1ccc(NC(=O)Cc2noc3ccccc23)c(C)c1 10.2%, Cc1ccccc1COc1ccc(/C(O)=C2/C(=O)C(=O)N(CCCn3ccnc3)C2c2ccco2)cc1 (centres undefined) -30.3%, COc1ccccc1CN1CC(C(=O)NCCn2nc(C)cc2C)CCC1=O (centres undefined) 12.7%, CC1CCCCN1C(=O)Cn1cc(C=O)c2ccccc21 (centres undefined) -5.31%

Potency, inconclusive:
COc1cc(-c2csc(C)n2)ccc1O 20.6 µM [activator, single point], Oc1ccc(C[C@@H]2CNCCN2CC2(c3ccccc3)CC2)cc1 2.59 µM [activator, single point], COc1ccccc1OCc1nnc(SCC(=O)Nc2ccc(C)cc2)n1C 0.0052 µM [activator, full curve, poor fit], S=C(Nc1ccccc1)c1ccccn1 0.116 µM [falling, full curve, poor fit], Cc1nn(Cc2ccccc2)c(Cl)c1C(=O)OCc1nnc(-c2ccccc2)o1 16.4 µM [rising, partial curve], CN1Cc2c(N3CCOCC3)nc(SCCC#N)c(C#N)c2CC1(C)C 2.06 µM [activator, full curve], CCOc1ncccc1C(=O)OCC(=O)c1c(N)n(C)c(=O)n(C)c1=O 23.1 µM [activator, single point], Cc1cccc(NC(=O)c2cnccn2)c1 29.1 µM [activator, single point], COc1ccc(CN(C)C(=O)c2ccccc2OCc2c(C)noc2C)c(OC)c1 4.11 µM [falling, partial curve, poor fit], COc1ccc(C(=O)c2sc(Nc3ccc(NC(C)=O)cc3)nc2C)cc1 32.6 µM [falling, single point], Cc1ccc(N2CCN(/N=C/c3c(C)nn(-c4ccccc4)c3Cl)CC2)cc1 29.1 µM [falling, single point], O=C(OCC(=O)N1CCc2ccccc21)c1ccccc1[N+](=O)[O-] 6.51 µM [activator, single point], C=CCN1C(=O)CN=C1Nc1cc(C)cc(C)c1 23.1 µM [activator, single point], COC(=O)c1ccccc1NC(=O)COc1ccc2c(c1)OCO2 23.1 µM [activator, single point], CC1(C)Cc2[nH]c(=O)c(C#N)cc2CS1 0.651 µM [falling, full curve, poor fit], CCC(C)(C)NC(=O)CN(CC1CCCO1)C(=O)CNS(=O)(=O)c1ccccc1 (centres undefined) 2.59 µM [falling, single point], CCOc1ccc(CCNC(=O)c2cccs2)cc1OCC 29.1 µM [falling, single point], CCOC(=O)c1c(NC(=O)CSc2nc3cc(Cl)ccc3s2)sc(C(C)=O)c1C 29.1 µM [rising, partial curve, poor fit], O=C(CN1C(=O)NC2(CCOc3ccccc32)C1=O)NCc1ccc(F)cc1 (centres undefined) 3.66 µM [activator, full curve], Cc1nnc(SCC(=O)O)o1 6.51 µM [falling, single point], COc1ccc(CCNC(=O)C2CCN(S(=O)(=O)c3ccc4nc5c(c(C(=O)O)c4c3)CCCC5)CC2)cc1OC 32.6 µM [activator, partial curve, poor fit], COc1ccc(OC)c(NC(=O)CSc2nnnn2-c2ccccc2F)c1 0.82 µM [activator, full curve, poor fit], Cc1ccc(C)c(NC(=O)C(Sc2nc3ccc(C)cc3[nH]2)c2ccccc2)c1 (centres undefined) 14.6 µM [activator, partial curve, poor fit]

outcome, inactive:
COc1cc2[nH]c(=O)n(Cc3ccc(C(=O)NC4CCCC4)cc3)c(=O)c2cc1OC inactive [at 46.1 µM], CCOc1ccc(N(CC(=O)Nc2ccc(C)cc2)S(=O)(=O)c2c(C)[nH]c(=O)[nH]c2=O)cc1 inactive [at 46.1 µM]
